Data taken from article PMC11956017, “Design of Benzyl-triazolopyrimidine-Based NADPH Oxidase Inhibitors Leads to the Discovery of a Potent Dual Covalent NOX2/MAOB Inhibitor” (Journal of Medicinal Chemistry, 2025).
Results are given in words; binding and its absence hold for the method and conditions named. Some results given as binding are weak or reduced against the parent protein; the word gives no strength.

Target: T1, human p22^phox (human) (UniProt P13498)
T1 sequence: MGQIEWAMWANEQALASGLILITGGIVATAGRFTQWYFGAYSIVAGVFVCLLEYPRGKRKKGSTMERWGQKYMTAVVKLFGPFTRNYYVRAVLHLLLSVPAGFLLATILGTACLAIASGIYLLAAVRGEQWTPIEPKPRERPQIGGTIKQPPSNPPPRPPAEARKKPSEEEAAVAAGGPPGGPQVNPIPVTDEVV
Test: immunoaffinity co-purification + SEC; DDM/CHS-solubilised PLB-985 membranes applied to Protein G Sepharose prepacked with the p22phox-specific mAb CS9; eluted with 200 uM p22phox epitope peptide; then gel filtration on Superdex 200 Increase 5/150; 10 mM HEPES pH 7.4, 10 mM NaCl, 100 mM KCl, 0.026% DDM, 0.0052% CHS

binding: binds
B1: human NOX2 (enzyme, UniProt P04839 1-570)
chain: MGNWAVNEGLSIFVILVWLGLNVFLFVWYYRVYDIPPKFFYTRKLLGSALALARAPAACLNFNCMLILLPVCRNLLSFLRGSSACCSTRVRRQLDRNLTFHKMVAWMIALHSAIHTIAHLFNVEWCVNARVNNSDPYSVALSELGDRQNESYLNFARKRIKNPEGGLYLAVTLLAGITGVVITLCLILIITSSTKTIRRSYFEVFWYTHHLFVIFFIGLAIHGAERIVRGQTAESLAVHNITVCEQKISEWGKIKECPIPQFAGNPPMTWKWIVGPMFLYLCERLVRFWRSQQKVVITKVVTHPFKTIELQMKKKGFKMEVGQYIFVKCPKVSKLEWHPFTLTSAPEEDFFSIHIRIVGDWTEGLFNACGCDKQEFQDAWKLPKIAVDGPFGTASEDVFSYEVVMLVGAGIGVTPFASILKSVWYKYCNNATNLKLKKIYFYWLCRDTHAFEWFADLLQLLESQMQERNNAGFLSYNIYLTGWDESQANHFAVHHDEEKDVITGLKQKTLYGRPNWDNEFKTIASQHPNTRIGVFLCGPEALAETLSKQSISNSESGPRGVHFIFNKENF
